Assay results taken from US20090081786A1, “Peptide sequences for modulation of protein kinase C” (priority 2006, published 2009).
Results are given in words; binding and its absence hold for the method and conditions named. Some results given as binding are weak or reduced against the parent protein; the word gives no strength.

Chains of the proteins cited; added tags and fusions are not shown. Lines headed by an entry give the natural chain unless they say otherwise; changes in a name come on top.
UniProt P08758: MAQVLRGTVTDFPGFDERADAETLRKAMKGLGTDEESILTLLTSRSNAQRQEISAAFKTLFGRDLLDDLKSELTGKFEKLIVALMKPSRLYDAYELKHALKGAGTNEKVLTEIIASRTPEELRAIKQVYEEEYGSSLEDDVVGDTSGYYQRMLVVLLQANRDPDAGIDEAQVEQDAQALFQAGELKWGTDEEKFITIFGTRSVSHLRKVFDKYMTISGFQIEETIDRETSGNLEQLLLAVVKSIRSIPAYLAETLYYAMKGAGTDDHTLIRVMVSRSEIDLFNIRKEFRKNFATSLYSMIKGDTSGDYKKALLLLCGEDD
UniProt P28867: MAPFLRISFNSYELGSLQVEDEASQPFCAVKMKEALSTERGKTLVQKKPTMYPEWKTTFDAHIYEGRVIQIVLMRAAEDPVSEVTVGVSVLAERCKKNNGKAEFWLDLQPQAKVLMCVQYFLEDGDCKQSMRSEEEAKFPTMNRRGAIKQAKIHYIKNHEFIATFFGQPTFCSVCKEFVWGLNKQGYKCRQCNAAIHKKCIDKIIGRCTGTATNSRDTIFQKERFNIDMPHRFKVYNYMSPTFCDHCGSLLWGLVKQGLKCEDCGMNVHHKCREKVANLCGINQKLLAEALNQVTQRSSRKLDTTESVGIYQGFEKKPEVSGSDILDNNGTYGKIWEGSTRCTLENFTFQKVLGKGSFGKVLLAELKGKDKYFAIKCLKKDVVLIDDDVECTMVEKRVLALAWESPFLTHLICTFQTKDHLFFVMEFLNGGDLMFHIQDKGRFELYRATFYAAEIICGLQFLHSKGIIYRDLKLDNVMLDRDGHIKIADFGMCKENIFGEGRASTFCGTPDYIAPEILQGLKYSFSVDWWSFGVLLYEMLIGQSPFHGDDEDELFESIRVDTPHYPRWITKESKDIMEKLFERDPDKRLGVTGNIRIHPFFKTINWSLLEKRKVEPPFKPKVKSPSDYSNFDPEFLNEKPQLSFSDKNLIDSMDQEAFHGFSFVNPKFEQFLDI

Molecular target: CFP-annexin V (Homo sapiens (Human)) (UniProt P08758)
Assay: FRET between CFP-annexin V and YFP-δPKC in transfected CHO cells, 100 nM PMA, FIG. 4A

binding: binds
Substance: YFP-δPKC (from UniProt P28867 1-674)
